Test results reported in paper PMC4511761.
These are yes or no findings as the source states them, for the method shown. In cells and extracts the contact can be indirect. Some binding calls cover weakened binding; strength is not graded here. One block for each substance: values may come before it.

Amino acid sequences for entries named in this document (tags omitted). A change or cut given only in a name is not applied to a line headed by its entry.
UniProt P60122: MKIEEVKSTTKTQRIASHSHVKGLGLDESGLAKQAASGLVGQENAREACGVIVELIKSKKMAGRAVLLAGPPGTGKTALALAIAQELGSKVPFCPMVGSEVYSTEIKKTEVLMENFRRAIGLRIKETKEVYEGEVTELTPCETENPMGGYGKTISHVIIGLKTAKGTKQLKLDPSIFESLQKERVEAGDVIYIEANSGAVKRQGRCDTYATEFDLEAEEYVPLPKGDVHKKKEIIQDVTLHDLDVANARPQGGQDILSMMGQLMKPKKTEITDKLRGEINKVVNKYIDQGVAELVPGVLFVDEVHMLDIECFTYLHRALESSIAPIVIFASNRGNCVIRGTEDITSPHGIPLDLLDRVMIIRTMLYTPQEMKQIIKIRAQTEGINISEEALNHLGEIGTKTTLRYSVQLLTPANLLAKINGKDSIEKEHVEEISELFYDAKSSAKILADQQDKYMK
UniProt Q9WTM5: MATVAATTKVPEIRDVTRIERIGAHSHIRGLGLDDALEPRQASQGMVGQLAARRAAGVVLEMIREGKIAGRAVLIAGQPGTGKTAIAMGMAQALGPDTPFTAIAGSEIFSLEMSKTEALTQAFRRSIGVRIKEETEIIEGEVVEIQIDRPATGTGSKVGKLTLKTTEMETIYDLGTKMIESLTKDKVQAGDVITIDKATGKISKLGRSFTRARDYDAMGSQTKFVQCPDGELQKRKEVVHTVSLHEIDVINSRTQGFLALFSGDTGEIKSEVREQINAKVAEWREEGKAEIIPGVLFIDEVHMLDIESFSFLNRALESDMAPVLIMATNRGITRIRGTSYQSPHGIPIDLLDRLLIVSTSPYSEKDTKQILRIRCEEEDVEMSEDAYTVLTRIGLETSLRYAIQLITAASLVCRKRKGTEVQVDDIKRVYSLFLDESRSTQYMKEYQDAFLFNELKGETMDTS
UniProt P53350: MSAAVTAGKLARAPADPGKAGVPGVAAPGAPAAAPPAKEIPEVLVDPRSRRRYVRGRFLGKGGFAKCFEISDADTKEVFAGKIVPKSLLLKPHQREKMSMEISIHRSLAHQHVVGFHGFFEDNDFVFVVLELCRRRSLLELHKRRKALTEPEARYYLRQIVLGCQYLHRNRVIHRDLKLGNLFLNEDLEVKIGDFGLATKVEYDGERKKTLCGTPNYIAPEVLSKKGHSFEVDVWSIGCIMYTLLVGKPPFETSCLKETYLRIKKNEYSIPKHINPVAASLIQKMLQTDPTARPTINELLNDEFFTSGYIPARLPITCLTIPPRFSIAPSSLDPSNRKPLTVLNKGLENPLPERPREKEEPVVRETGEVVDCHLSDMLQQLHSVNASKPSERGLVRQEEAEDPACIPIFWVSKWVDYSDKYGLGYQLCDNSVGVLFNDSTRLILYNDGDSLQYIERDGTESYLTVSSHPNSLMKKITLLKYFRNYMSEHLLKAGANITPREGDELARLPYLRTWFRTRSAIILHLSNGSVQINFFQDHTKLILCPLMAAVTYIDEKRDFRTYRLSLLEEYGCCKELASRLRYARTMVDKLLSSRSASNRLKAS

Assays:
[1] = molecular target: GST-tagged RUVBL1 (murine) (mouse) (UniProt P60122); assay: pull-down; GST-tagged RUVBL1 and His-tagged RUVBL2 co-expressed in E. coli and purified using GSH beads; co-purification
[2] = molecular target: GFP-tagged mouse RuvBL1 (GFP-mRuvBL1) (mouse) (UniProt P60122); assay: co-IP; GFP-trap (Chromotek) on 1 mg whole cell extract of HeLa cells stably expressing the GFP-tagged protein; cells asynchronous or double-thymidine/nocodazole-synchronized; Western blot
[3] = molecular target: HA-tagged RUVBL1 (murine) (mouse) (UniProt P60122); assay: co-IP; anti-HA (12CA5 hybridoma supernatant) on 1 mg extract (NP-40 buffer) of nocodazole-arrested 293T cells transfected with HA-tagged RUVBL1; blot for PLK1
[4] = molecular target: GFP-tagged mouse RuvBL2 (GFP-mRuvBL2) (mouse) (UniProt Q9WTM5); assay: co-IP; GFP-trap (Chromotek) on 1 mg whole cell extract of HeLa cells stably expressing the GFP-tagged protein; cells asynchronous or double-thymidine/nocodazole-synchronized; Western blot
[5] = molecular target: FLAG-tagged PLK1 (polo-like kinase 1) (UniProt P53350); assay: co-IP; anti-FLAG antibody/beads on 1 mg extract (NP-40 buffer: 50 mM Tris-HCl pH 8.0, 150 mM NaCl, 1 mM EDTA, 1% NP-40) of FLAG-PLK1-transfected 293T cells, asynchronous or nocodazole-arrested; blot for RUVBL1
[6] = molecular target: FLAG-tagged murine RuvBL1 D302N (ATPase-dead) (mouse) (UniProt P60122); assay: co-IP; anti-FLAG immunoprecipitates from U2OS T-REx cell lines after four days of doxycycline treatment; blot for RUVBL2
[7] = molecular target: FLAG-tagged murine RuvBL1, wild type (mouse) (UniProt P60122); assay: as above

- binding [1]: binds
Substance: His-tagged RUVBL2 (murine) (from UniProt Q9WTM5 1-463)

- binding [2]: binds
- binding [3]: binds
Substance: PLK1 (polo-like kinase 1), endogenous (from UniProt P53350 1-603) (enzyme)

- binding [4]: binds
- binding [5]: binds
Substance: RUVBL1 (RuvB-like 1), endogenous (from UniProt Q9Y265-1 1-456)

- binding [2]: binds
- binding [6]: binds
- binding [7]: binds
Substance: RUVBL2 (RuvB-like 2), endogenous (from UniProt Q9Y230-1 1-463)
